Values quoted from earlier work in patent US6384081B2, “Treatment of diseases of the eye characterized by the formation of metalloproteinase” (priority 1998, dated 2002).
pIC50: −log10 of the molar value. At least one compound was matched to its structure with a doubt left.

How the values were obtained:
[1] = molecular target: collagenase purified from culture medium of alkali-burned rabbit corneas; settings: synthetic substrate
toxoplasma = settings: rabbit eyes infected with toxoplasma

| SMILES | pIC50 [1] | therapeutic efficiency on infected rabbit eyes (toxoplasma) |
| --- | --- | --- |
| CN(C)[C@@H]1C(O)=C(C(N)=O)C(=O)[C@@]2(O)C(O)=C3C(=O)c4c(O)cccc4[C@@](C)(O)[C@H]3C[C@@H]12 [tetracycline] | 3.46 |  |
| C[C@H]1c2cccc(O)c2C(=O)C2=C(O)[C@]3(O)C(=O)C(C(N)=O)=C(O)[C@@H](N(C)C)[C@@H]3[C@@H](O)[C@@H]21 [doxycycline] | 4.82 |  |
| CCc1nc(N)nc(N)c1-c1ccc(Cl)cc1 [pyrimethamine] |  | positive elect |
| CN(C)c1ccc(O)c2c1C[C@H]1C[C@H]3[C@H](N(C)C)C(O)=C(C(N)=O)C(=O)[C@@]3(O)C(O)=C1C2=O [minocycline] | 3.72 |  |
